Measurements: PMC11827603
No constants are given. Whether binding was seen depends on the method and setting. Binding seen in cells or lysates may run through a third protein. Here binding means that the protein was enriched with, or labelled near, the bait; the list need not be complete.

Target: T1, PIP82-TurboID (stable S2R+ 99F8 cell line, metallothionein promoter) (Drosophila) (UniProt Q9W3E2)
T1 sequence: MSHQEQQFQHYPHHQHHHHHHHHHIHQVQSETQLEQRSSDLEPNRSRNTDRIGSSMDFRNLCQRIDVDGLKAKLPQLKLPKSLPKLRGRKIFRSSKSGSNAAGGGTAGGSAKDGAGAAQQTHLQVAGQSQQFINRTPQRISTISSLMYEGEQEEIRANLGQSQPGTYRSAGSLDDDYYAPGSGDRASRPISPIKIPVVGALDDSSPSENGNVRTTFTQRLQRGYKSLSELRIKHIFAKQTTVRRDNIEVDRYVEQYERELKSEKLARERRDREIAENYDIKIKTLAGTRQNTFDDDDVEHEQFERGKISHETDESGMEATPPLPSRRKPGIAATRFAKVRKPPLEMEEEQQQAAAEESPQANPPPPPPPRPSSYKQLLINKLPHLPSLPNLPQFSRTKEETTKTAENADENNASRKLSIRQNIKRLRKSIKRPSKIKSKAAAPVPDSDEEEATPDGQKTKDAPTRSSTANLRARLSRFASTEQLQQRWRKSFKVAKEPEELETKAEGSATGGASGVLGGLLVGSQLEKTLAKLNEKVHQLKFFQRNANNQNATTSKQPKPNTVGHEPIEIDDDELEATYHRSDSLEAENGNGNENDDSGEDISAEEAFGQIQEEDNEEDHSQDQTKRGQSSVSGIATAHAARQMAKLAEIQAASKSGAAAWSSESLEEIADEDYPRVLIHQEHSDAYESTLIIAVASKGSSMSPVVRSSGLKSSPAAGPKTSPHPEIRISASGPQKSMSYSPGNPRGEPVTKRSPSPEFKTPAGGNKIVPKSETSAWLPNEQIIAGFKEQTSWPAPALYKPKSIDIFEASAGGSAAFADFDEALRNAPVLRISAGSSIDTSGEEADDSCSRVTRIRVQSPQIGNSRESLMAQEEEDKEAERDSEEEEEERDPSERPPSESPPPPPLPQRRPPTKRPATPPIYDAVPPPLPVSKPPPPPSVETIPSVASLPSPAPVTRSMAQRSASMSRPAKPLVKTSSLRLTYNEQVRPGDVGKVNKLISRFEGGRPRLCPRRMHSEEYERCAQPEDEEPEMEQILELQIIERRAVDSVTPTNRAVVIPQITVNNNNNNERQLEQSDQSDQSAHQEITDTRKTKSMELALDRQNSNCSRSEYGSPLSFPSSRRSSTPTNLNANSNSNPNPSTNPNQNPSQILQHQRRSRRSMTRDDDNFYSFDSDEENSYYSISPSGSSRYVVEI
Experiment: proximity labelling; TurboID fused within PIP82 in a stable S2R+ 99F8 line, 500 uM copper sulphate 72 h; three replicates of 1x10^8 cells against S2 cells; RIPA lysate, streptavidin bead enrichment, LC-MS/MS; SAINT cutoff >=0.8

binding, binds:
Auxilin
Epsin15
Liquid facets
Liquid facets related
Supervillin (endogenous, S2 cells)

Target: T2, PIP82-TurboID (UAS-PIP82-TurboID expressed in photoreceptors with Pph13-GAL4) (Drosophila) (UniProt Q9W3E2)
T2 sequence: T1 sequence
Experiment: proximity labelling; PIP82-TurboID expressed in photoreceptors (Pph13-GAL4); lysates of 100 adult heads a replicate against w1118 heads; RIPA lysate, streptavidin bead enrichment, LC-MS/MS; SAINT did not separate specific from non-specific, hits sorted as exclusive or at least threefold enriched

binding, binds:
Bifocal (endogenous, adult heads)
Supervillin (endogenous, adult heads)
